Results published in PubChem BioAssay AID256 (DTP/NCI, 2004).
The list is a part of this screen's results and no random one: it gathers tests that were run many times, whatever their T/C, doses with no T/C, and many T/C values between a quarter and a half above the control. Further doses and runs are listed elsewhere. T/C: endpoint of the treated group in % of that of the vehicle group. Some entries give survivors of the animals treated and no T/C: the source holds a T/C of zero for them, seemingly a mark for toxic or unscored doses. Some survivor counts are full or nearly so, which does not show that the dose was tolerated: survival well below the control is almost never listed, so the zero probably covers shortened survival too. Survivors were counted at the toxicity check, usually on the fifth day, unless a day is given; later deaths do not show. Schedules are NCI's codes, read here as Q, the interval in days (D) or hours (H), X, the number of doses. Some doses were run more than once; their values stand side by side, smallest first. Where survival is the endpoint, the PubChem record calls one and a half times the control and up active, and a quarter to a half above the control has no call in these data; cut-offs in other NCI protocols can differ.

System: CD2F1 mice, L1210 leukemia ip, survival T/C
Assay: NCI In Vivo Anticancer Drug Screen. Data for tumor model L1210 Leukemia (intraperitoneal) in CD2F1 (CDF1) mice
Details: T/C endpoint: mean survival time, higher T/C = longer survival
Procedure, shortened: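 Activity against a transplanted murine tumor was judged by comparing the compound group with a vehicle group. The outcome in the treated animals was divided by that in the controls.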

[1] = dose: 400.0 mg/kg/injection, schedule: Q04DX003 (ip), vehicle: saline with Tween-80
[2] = dose: 100.0 mg/kg/injection, schedule: Q01DX009 (ip), vehicle: saline with Tween-80
[3] = dose: 400.0 mg/kg/injection, schedule: Q01DX001 (ip), vehicle: saline with Tween-80

In the case of `COc1cccc2c1C(=O)c1c(O)c3c(c(O)c1C2=O)C[C@@](O)(C(=O)COC(C)=O)C[C@@H]3OC1CC(N)C(O)C(C)O1` (some centres undefined), the T/C (dose: 0.75 mg/kg/injection, schedule: Q01DX009 (ip), vehicle: saline) was 132 % of control, the T/C (dose: 0.75 mg/kg/injection, schedule: Q04DX003 (ip), vehicle: saline with Tween-80) was 133 % of control and the T/C (dose: 1.0 mg/kg/injection, schedule: Q04DX003 (ip), vehicle: saline sonified) was 146 % of control. For the same compound, the T/C (dose: 1.5 mg/kg/injection, schedule: Q01DX009 (ip), vehicle: saline) was 147 % of control, the T/C (dose: 1.5 mg/kg/injection, schedule: Q04DX003 (ip), vehicle: saline sonified) was 133 % of control and the T/C (dose: 1.5 mg/kg/injection, schedule: Q04DX003 (ip), vehicle: saline with Tween-80) was 148 % of control. The T/C (dose: 2.25 mg/kg/injection, schedule: Q04DX003 (ip), vehicle: saline sonified) was 142 % of control.

In the case of `COc1ccc(CCN2C(=O)C=CC2=O)cc1OC`, the survivor count (dose: 20.0 mg/kg/injection, schedule: Q01DX009 (ip), vehicle: saline) was 1 of 6, the survivor count (dose: 40.0 mg/kg/injection, schedule: Q01DX001 (ip), vehicle: saline) was 0 of 6 and the survivor count (dose: 80.0 mg/kg/injection, schedule: Q01DX001 (ip), vehicle: saline) was 0 of 6.

For `CCOC(=O)c1cnc(=O)[nH]c1N`, the survivor count [1] was 0 of 6.

With `CC(=O)c1cc(C)[nH]c1C` the survivor count [1] was 5 of 6.

With `Oc1c(Cl)cc(Cl)cc1C=NCC1CCC(CN=Cc2cc(Cl)cc(Cl)c2O)CC1` (centres undefined) the survivor count (dose: 100.0 mg/kg/injection, schedule: Q04DX003 (ip), vehicle: saline with Tween-80) was 6 of 6.

With `[B-][N+](C)(C)Cc1ccccc1` the survivor count [2] was 4 of 6, the survivor count (dose: 200.0 mg/kg/injection, schedule: Q01DX001 (ip), vehicle: saline with Tween-80) was 1 of 6 and the survivor count [3] was 0 of 6.

In the case of `CC(C)COP(=O)(OCC(C)C)OCC(C)C`, the survivor count [1] was 0 of 6.

`Cc1cc2c(C)c3cc(C)c(N)cc3nc2cc1N` was tested, and the survivor count (dose: 150.0 mg/kg/injection, schedule: Q01DX001 (ip), vehicle: saline) was 2 of 6 and the survivor count (dose: 300.0 mg/kg/injection, schedule: Q01DX001 (ip), vehicle: saline) was 0 of 6.

For `C/C=C/CC(C/C=C/C)C1CC[N-]CC1.C/C=C/CC(C/C=C/C)C1CC[N-]CC1.[Cl][Pt+2]([Cl])([Cl])[Cl]`, the survivor count (dose: 25.0 mg/kg/injection, schedule: Q01DX009 (ip), vehicle: other) was 6 of 6, the survivor count (dose: 50.0 mg/kg/injection, schedule: Q01DX009 (ip), vehicle: other) was 6 of 6 and the survivor count (dose: 200.0 mg/kg/injection, schedule: Q01DX009 (ip), vehicle: other) was 3 of 6.

For `CN(C)C=NC1=NN(C)c2ncnc3c2c1cn3C1OC(CO)C(O)C1O` (centres undefined), the T/C (dose: 600.0 mg/kg/injection, schedule: Q01DX009 (ip), vehicle: other) was 126 % of control and the T/C (dose: 900.0 mg/kg/injection, schedule: Q01DX009 (ip), vehicle: other) was 126 % of control.

`NNC(=O)CCCCCCCCCCCCCCO` was tested, and the survivor count (dose: 100.0 mg/kg/injection, schedule: Q01DX001 (ip), vehicle: saline with Tween-80) was 3 of 3.

`O=C(O)C1=CC=C(c2ccccc2)C(=O)C1` was tested, and the survivor count [2] was 6 of 6, the survivor count (dose: 200.0 mg/kg/injection, schedule: Q01DX009 (ip), vehicle: saline with Tween-80) was 5 of 6 and the survivor count [3] was 1 of 6.

For `CC(NC(=O)C(C)(Br)C1CCCCC1)c1ccccc1` (centres undefined), the survivor count [3] was 3 of 3.

`C=C(C)/C([O-])=N/[N+](C)(C)CC(O)CCCCCCCCCCCC` (centres undefined) was tested, and the survivor count (dose: 400.0 mg/kg/injection, schedule: Q01DX001 (ip), vehicle: saline) was 1 of 6 and 5 of 10 and the survivor count (dose: 800.0 mg/kg/injection, schedule: Q01DX001 (ip), vehicle: saline) was 0 of 6 and 4 of 10.

In the case of `Nc1ncnc2c1nnn2C1OC(CO)C(O)C1O` (centres undefined), the T/C (dose: 42.0 mg/kg/injection, schedule: Q01DX009 (ip), vehicle: Klucel (hydroxypropylcellulose) (HPC)) was 126 % of control.

In the case of `[Cl][Pt+2][Cl].[NH-]c1ccc(F)cc1F.[NH-]c1ccc(F)cc1F`, the T/C (dose: 50.0 mg/kg/injection, schedule: Q04DX003 (ip), vehicle: distilled water + Tween-80) was 128 % of control and the survivor count (dose: 200.0 mg/kg/injection, schedule: Q04DX003 (ip), vehicle: distilled water + Tween-80) was 0 of 6 and 1 of 6.
